Binding data for two substances are collected here from article doi:10.1101/2021.08.20.456807.

By UniProt entry, the sequences of proteins in these tests, tags left out.
UniProt P08670: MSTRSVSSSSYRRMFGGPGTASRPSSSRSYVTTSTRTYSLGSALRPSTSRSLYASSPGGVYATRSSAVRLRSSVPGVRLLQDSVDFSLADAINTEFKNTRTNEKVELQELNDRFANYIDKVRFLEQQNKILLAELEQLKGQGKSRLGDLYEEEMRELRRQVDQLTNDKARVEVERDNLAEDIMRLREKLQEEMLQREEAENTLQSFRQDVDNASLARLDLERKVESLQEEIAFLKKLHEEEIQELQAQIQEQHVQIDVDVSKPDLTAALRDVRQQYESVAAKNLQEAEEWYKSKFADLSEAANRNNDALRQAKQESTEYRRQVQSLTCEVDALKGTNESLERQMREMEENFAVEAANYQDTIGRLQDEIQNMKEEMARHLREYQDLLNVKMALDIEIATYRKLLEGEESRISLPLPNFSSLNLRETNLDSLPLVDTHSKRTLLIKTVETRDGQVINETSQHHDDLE
UniProt Q9NZJ4: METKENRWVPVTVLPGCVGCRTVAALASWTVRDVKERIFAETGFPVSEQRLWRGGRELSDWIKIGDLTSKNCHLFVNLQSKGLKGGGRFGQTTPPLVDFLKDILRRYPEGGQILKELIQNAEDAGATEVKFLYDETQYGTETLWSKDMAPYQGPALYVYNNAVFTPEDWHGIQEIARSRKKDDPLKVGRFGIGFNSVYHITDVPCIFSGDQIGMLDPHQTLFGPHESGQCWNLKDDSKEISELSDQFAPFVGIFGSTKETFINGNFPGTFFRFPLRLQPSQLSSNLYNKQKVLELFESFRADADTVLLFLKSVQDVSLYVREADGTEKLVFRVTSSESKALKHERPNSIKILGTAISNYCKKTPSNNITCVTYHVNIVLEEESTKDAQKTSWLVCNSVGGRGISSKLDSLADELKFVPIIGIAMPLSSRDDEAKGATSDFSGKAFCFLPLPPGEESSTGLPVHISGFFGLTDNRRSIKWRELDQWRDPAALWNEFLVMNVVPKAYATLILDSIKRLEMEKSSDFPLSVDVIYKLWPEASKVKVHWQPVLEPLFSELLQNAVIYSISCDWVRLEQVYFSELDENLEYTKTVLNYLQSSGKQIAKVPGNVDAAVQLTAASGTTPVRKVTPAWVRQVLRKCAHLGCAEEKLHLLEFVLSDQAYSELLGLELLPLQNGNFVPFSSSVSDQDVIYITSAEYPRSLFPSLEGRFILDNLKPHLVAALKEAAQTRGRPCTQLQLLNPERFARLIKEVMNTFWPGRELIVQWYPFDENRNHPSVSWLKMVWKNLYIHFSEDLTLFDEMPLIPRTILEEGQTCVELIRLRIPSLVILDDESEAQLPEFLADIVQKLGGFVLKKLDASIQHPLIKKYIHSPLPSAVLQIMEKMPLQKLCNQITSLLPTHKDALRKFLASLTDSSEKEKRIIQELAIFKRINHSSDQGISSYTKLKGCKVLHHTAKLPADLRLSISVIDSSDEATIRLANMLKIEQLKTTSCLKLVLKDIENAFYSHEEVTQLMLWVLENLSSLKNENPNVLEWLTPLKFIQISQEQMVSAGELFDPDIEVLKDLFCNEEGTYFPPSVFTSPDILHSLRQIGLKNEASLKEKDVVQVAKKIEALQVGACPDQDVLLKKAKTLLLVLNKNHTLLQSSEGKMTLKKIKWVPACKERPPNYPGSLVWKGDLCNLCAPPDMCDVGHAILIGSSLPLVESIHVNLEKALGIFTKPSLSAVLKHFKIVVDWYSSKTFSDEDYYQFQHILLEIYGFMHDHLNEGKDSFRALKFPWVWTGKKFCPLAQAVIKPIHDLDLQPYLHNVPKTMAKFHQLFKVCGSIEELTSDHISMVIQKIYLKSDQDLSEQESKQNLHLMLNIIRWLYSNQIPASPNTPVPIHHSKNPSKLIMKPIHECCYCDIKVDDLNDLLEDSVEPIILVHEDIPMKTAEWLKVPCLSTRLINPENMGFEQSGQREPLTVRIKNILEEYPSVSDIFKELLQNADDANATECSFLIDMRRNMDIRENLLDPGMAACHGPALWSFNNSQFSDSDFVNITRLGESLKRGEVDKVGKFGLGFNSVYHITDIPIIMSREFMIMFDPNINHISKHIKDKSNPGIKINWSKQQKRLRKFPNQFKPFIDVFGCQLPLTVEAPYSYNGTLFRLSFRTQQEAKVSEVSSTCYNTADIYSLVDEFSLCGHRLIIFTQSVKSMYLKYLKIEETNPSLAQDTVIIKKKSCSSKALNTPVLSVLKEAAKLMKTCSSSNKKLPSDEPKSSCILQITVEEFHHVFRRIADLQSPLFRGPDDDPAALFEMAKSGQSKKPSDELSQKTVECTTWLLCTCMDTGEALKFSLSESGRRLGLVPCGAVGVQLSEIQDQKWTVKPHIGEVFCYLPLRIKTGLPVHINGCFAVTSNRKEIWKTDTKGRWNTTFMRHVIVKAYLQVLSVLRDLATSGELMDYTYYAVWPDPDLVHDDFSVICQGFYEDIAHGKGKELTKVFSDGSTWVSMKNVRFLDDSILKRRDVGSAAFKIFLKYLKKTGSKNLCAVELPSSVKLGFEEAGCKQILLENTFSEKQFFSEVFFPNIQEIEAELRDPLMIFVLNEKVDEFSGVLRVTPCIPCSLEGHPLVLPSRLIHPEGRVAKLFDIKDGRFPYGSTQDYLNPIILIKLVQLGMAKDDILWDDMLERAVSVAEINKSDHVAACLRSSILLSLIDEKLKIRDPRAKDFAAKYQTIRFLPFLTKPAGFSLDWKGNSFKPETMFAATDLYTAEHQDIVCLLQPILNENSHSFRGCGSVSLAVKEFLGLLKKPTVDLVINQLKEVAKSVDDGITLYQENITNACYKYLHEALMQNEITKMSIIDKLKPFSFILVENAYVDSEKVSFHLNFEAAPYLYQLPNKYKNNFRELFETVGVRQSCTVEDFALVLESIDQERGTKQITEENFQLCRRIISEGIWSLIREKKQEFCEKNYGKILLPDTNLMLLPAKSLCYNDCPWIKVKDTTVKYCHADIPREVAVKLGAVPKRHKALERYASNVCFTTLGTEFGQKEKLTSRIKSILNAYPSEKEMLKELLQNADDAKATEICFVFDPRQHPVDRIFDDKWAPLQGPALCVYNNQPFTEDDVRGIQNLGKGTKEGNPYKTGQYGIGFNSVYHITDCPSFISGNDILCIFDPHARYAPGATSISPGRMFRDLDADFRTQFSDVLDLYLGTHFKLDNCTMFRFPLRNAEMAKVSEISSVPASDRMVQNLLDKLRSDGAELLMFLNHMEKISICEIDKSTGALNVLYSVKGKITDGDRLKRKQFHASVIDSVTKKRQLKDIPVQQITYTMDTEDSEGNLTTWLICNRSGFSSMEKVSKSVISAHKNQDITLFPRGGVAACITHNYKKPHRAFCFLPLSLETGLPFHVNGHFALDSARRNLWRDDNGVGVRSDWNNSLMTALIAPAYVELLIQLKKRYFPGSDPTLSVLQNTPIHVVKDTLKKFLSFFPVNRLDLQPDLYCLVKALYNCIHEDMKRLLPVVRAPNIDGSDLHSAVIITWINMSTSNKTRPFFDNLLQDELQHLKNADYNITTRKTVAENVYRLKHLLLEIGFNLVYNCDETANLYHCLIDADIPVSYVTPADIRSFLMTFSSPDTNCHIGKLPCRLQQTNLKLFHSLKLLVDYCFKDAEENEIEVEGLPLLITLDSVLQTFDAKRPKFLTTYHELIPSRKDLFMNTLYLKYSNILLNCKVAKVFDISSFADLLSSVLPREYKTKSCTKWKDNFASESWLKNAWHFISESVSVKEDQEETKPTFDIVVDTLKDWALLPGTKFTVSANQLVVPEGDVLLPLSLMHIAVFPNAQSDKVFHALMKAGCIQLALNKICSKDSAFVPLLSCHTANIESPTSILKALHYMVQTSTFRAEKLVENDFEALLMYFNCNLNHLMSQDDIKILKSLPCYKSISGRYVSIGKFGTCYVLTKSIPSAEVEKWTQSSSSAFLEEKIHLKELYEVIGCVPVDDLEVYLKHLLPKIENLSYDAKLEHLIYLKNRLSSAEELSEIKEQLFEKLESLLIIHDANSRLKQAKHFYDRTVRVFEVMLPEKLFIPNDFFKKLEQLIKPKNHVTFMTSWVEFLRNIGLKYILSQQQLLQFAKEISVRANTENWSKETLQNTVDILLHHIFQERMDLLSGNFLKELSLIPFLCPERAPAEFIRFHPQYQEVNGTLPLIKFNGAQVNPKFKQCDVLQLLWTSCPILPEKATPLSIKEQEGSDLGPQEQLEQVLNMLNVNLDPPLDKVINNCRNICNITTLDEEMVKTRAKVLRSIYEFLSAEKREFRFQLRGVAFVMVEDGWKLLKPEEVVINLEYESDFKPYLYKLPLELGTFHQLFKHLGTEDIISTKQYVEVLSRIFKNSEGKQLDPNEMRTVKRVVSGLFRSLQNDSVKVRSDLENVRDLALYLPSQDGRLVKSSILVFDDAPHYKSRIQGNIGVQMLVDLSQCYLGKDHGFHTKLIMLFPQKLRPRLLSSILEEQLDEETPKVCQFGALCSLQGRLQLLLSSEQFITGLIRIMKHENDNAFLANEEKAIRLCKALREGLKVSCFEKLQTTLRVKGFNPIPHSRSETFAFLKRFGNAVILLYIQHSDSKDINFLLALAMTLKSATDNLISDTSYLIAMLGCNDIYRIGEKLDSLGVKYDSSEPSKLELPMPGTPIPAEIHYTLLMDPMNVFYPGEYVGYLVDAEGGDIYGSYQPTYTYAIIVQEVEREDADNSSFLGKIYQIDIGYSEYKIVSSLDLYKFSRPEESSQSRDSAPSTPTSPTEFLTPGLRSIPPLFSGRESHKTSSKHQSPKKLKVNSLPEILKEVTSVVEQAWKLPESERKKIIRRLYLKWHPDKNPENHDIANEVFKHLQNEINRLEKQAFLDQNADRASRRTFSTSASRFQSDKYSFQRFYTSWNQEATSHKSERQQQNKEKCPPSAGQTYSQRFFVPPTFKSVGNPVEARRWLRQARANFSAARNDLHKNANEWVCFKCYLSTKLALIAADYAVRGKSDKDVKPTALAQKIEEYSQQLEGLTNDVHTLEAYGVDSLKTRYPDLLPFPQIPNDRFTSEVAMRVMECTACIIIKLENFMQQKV

No constants are given. Whether binding was seen depends on the method and setting. In cells and extracts the contact can be indirect. Some entries that bind do so weakly or less than the wild type.

Experiment [1] has as its target vimentin (human (endogenous in SH-SY5Y)) (UniProt P08670). As to the kind of experiment: co-IP.
Experiment [2] deals with sacsin (human (endogenous in SH-SY5Y)) (UniProt Q9NZJ4). As to the kind of experiment: co-IP.

For the substance sacsin (from UniProt Q9NZJ4 1-4579), the binding entry in experiment [1] is on record as “binds”.

On to vimentin (from UniProt P08670 1-466), for which the binding result in experiment [2] is listed as “binds”.
